# Reference: the supplement of paper PMC4604168 (melanoma cell lines)
# The other results are listed elsewhere or left out. Many values rest on one well or one pass, so single values are uncertain.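 Imaging used 1,536-well plates; nuclei positive for cleaved PARP by antibody were divided by total DNA-stained nuclei to yield the apoptosis fraction. Doses for screening kept most cells viable, and cell lines differ markedly in resting and induced cleaved-PARP levels.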
# Key:
# Experiment in all cases: cleaved PARP positive nuclei fraction relative to DMSO control; melanoma cells; higher = more apoptosis
# Settings in all cases: library dose: low library concentration; 72 h
# [1] = system: 501Mel
# [2] = system: A101D
# [3] = system: A2058
# [4] = system: A375
# [5] = system: C32
# [6] = system: CBRC008 (line from a melanoma biopsy)
# [7] = system: CBRC014 (line from a melanoma biopsy)
# [8] = system: CBRC016 (line from a melanoma biopsy)
# [9] = system: CBRC017 (line from a melanoma biopsy)
# [10] = system: CBRC034 (line from a melanoma biopsy)
# [11] = system: COLO792
# [12] = system: COLO800
# [13] = system: COLO829
# [14] = system: G361
# [15] = system: IPC-298
# [16] = system: IST-MEL1
# [17] = system: LB2518-MEL
# [18] = system: LOXIMVI
# [19] = system: MEL-HO
SMILES,cleaved PARP positive nuclei fraction [1] [%],cleaved PARP positive nuclei fraction [2] [%],cleaved PARP positive nuclei fraction [3] [%],cleaved PARP positive nuclei fraction [4] [%],cleaved PARP positive nuclei fraction [5] [%],cleaved PARP positive nuclei fraction [6] [%],cleaved PARP positive nuclei fraction [7] [%],cleaved PARP positive nuclei fraction [8] [%],cleaved PARP positive nuclei fraction [9] [%],cleaved PARP positive nuclei fraction [10] [%],cleaved PARP positive nuclei fraction [11] [%],cleaved PARP positive nuclei fraction [12] [%],cleaved PARP positive nuclei fraction [13] [%],cleaved PARP positive nuclei fraction [14] [%],cleaved PARP positive nuclei fraction [15] [%],cleaved PARP positive nuclei fraction [16] [%],cleaved PARP positive nuclei fraction [17] [%],cleaved PARP positive nuclei fraction [18] [%],cleaved PARP positive nuclei fraction [19] [%]
"CCCCCCCCCCCCCCCCCCOP(=O)([O-])OC1CC[N+](C)(C)CC1 [Perifosine] + Cc1cn(-c2cc(NC(=O)c3ccc(C)c(Nc4nccc(-c5cccnc5)n4)c3)cc(C(F)(F)F)c2)cn1 [nilotinib] (first compound 0.4 µM, partner dose 0.2 µM)",77.8,300,166,112,82.2,257,95.9,89.7,82.7,173,97.3,31.1,65.8,126,88.4,119,208,156,112
"CC[C@]1(O)C[C@H]2CN(CCc3c([nH]c4ccccc34)[C@@](C(=O)OC)(c3cc4c(cc3OC)N(C=O)[C@H]3[C@@](O)(C(=O)OC)[C@H](OC(C)=O)[C@]5(CC)C=CCN6CC[C@]43[C@@H]65)C2)C1 [vincristine] + CC(=O)c1c(C)c2cnc(Nc3ccc(N4CCNCC4)cn3)nc2n(C2CCCC2)c1=O [palbociclib] (first compound 0.0001 µM, partner dose 0.04 µM)",101,139,2700,333,118,169,113,71.2,159,62.1,77.3,45.9,151,145,101,130,121,210,69.4
"Cc1ccc(Nc2nccc(N(C)c3ccc4c(C)n(C)nc4c3)n2)cc1S(N)(=O)=O [Pazopanib] + Cn1nnc2c(C(N)=O)ncn2c1=O [temozolomide] (first compound 0.4 µM, partner dose 2 µM)",115,46,151,128,69.5,403,114,91.1,140,66.1,88.7,102,151,175,227,93.6,114,262,90
"COc1cc([C@@H]2c3cc4c(cc3[C@@H](O[C@@H]3O[C@@H]5CO[C@@H](C)O[C@H]5[C@H](O)[C@H]3O)[C@H]3COC(=O)[C@H]23)OCO4)cc(OC)c1O [etoposide] + O=C(O)c1ccc2c(c1)nc(Nc1cccc(Cl)c1)c1ccncc12 [CX4945] (first compound 0.02 µM, partner dose 0.4 µM)",59.2,81.1,91.6,154,149,86.7,106,160,223,26.8,77.6,65.7,93.3,164,99.6,117,118,47.9,94.9
"Cc1cc(Nc2cc(N3CCN(C)CC3)nc(Sc3ccc(NC(=O)C4CC4)cc3)n2)n[nH]1 [Tozasertib] + Cn1cnc2c(F)c(Nc3ccc(Br)cc3Cl)c(C(=O)NOCCO)cc21 [selumetinib] (first compound 0.006 µM, partner dose 0.015 µM)",230,83.1,191,315,84.5,116,82.2,146,127,82.7,84.5,105,105,73.7,51.1,130,149,155,42.9
"O=C(Nc1cc(C(F)(F)F)cc(C(F)(F)F)c1)c1cc(Cl)ccc1O + O=C(O)c1ccc2c(c1)nc(Nc1cccc(Cl)c1)c1ccncc12 [CX4945] (first compound 0.016 µM, partner dose 0.4 µM)",128,80.2,62.9,108,132,69.2,99.2,152,117,119,149,51.7,108,143,43.8,108,103,67.7,85.9
"N#CC[C@H](C1CCCC1)n1cc(-c2ncnc3[nH]ccc23)cn1 [ruxolitinib] + CCCCCCCCc1ccc(CCC(N)(CO)CO)cc1 [fingolimod] (first compound 1 µM, partner dose 2 µM)",98.1,36.2,132,198,72.8,46.1,97.1,164,111,32.3,29.5,36.3,75.4,93.7,122,199,88.1,211,163
"O=C(Nc1cc(C(F)(F)F)cc(C(F)(F)F)c1)c1cc(Cl)ccc1O + O=C(/C=C/c1cccnc1)NCCCCC1CCN(C(=O)c2ccccc2)CC1 [FK866] (first compound 0.016 µM, partner dose 0.01 µM)",94.1,66.6,101,107,68.1,2930,81.9,317,944,303,185,69.1,136,1450,84,77.3,97.6,137,357
"O=C(/C=C/c1cccnc1)NCCCCC1CCN(C(=O)c2ccccc2)CC1 + NC1(c2ccc(-c3nc4ccn5c(=O)[nH]nc5c4cc3-c3ccccc3)cc2)CCC1 [MK2206] (first compound 0.01 µM, partner dose 0.4 µM)",57.2,194,116,160,70.9,2230,110,475,452,658,351,202,212,3680,112,108,131,75.5,275
"O=C(/C=C/c1cccnc1)NCCCCC1CCN(C(=O)c2ccccc2)CC1 + C[C@@H](N)c1ccc(C(=O)Nc2ccnc3[nH]ccc23)cc1 [RKI983] (first compound 0.01 µM, partner dose 0.4 µM)",115,117,118,224,94.8,8500,104,932,628,1100,1540,200,328,4090,1200,71.8,111,237,196
